PubChem BioAssay AID306 (DTP/NCI, 2004)
The list is a part of this screen's results and no random one: it gathers tests that were run many times, whatever their T/C, doses with no T/C, and many T/C values between a quarter and a half above the control. Other doses and runs of a compound stand elsewhere. T/C is the treated group as % of the vehicle group. Some entries give survivors of the animals treated and no T/C: the source holds a T/C of zero for them, seemingly a mark for toxic or unscored doses. Some doses without a T/C left all or most animals alive at the check, yet need not have been tolerated: the source hardly ever lists a survival T/C far under the control, and the zero likely stands for such cases as well. Survivors were counted at the toxicity check, usually on the fifth day, unless a day is given; later deaths do not show. Schedule codes are those of the source, taken here to give the interval after Q, in days (D) or hours (H), and the number of doses after X. Some schedule codes hold Z or #, which are not explained here. For survival time, this PubChem deposit counts one and a half times the control or more as active, and values a quarter to a half above the control carry no call in these data; other NCI protocols may use other cut-offs. Some T/C values are followed by the survivors on the day toxicity was checked, most often the fifth; where none is given, no animal had died by that day.

System: BDF1 mice, L1210 Methyl-GAG-resistant leukemia, survival T/C
Experiment: NCI In Vivo Anticancer Drug Screen. Data for tumor model L1210 Leukemia resistant to Methyl-GAG; NSC 32946 (subcutaneous) in B6D2F1 (BDF1) mice
Settings: T/C endpoint: mean survival time, higher T/C = longer survival
Experimental: The antitumor activity of compounds was measured in mice bearing transplantable tumors. Survival or tumor size were measured and the results are expressed as the measurement made in the treated group (T) divided by the measurement made in the vehicle treated control group (C). The tumor model used in this assay is L1210 Leukemia resistant to Methyl-GAG; NSC 32946 (subcutaneous) in B6D2F1 (BDF1) mice

[1] = dose: 50.0 mg/kg/injection, schedule: Q01DX Z (ip), vehicle: carboxymethylcellulose (CMC)
[2] = dose: 2.0 mg/kg/injection, schedule: Q01DX Z (ip), vehicle: saline
[3] = dose: 250.0 mg/kg/injection, schedule: Q01DX Z (ip), vehicle: carboxymethylcellulose (CMC)
[4] = dose: 64.0 mg/kg/injection, schedule: Q01DX Z (ip), vehicle: carboxymethylcellulose (CMC)
[5] = dose: 100.0 mg/kg/injection, schedule: Q01DX Z (ip), vehicle: carboxymethylcellulose (CMC)
[6] = dose: 50.0 mg/kg/injection, schedule: Q01DX Z (ip), vehicle: saline
[7] = dose: 400.0 mg/kg/injection, schedule: Q01DX Z (ip), vehicle: carboxymethylcellulose (CMC)
[8] = dose: 5.0 mg/kg/injection, schedule: Q01DX Z (ip), vehicle: carboxymethylcellulose (CMC)
[9] = dose: 10.0 mg/kg/injection, schedule: Q01DX Z (ip), vehicle: carboxymethylcellulose (CMC)
[10] = dose: 16.0 mg/kg/injection, schedule: Q01DX Z (ip), vehicle: carboxymethylcellulose (CMC)
[11] = dose: 32.0 mg/kg/injection, schedule: Q01DX Z (ip), vehicle: carboxymethylcellulose (CMC)
[12] = dose: 120.0 mg/kg/injection, schedule: Q01DX Z (ip), vehicle: carboxymethylcellulose (CMC)
[13] = dose: 200.0 mg/kg/injection, schedule: Q01DX Z (ip), vehicle: carboxymethylcellulose (CMC)
[14] = dose: 8.0 mg/kg/injection, schedule: Q01DX Z (ip), vehicle: saline

In the case of `CN(C)c1nc(N(C)C)nc(N(C)C)n1`, the survivor count (dose: 2000.0 mg/kg/injection, schedule: Q01DX Z (ip), vehicle: methylcellulose (MC)) is reported as 4 of 6.
In the case of `O=C(O)CCCc1ccc(N(CCCl)CCCl)cc1`, the survivor count [1] is reported as 4 of 6.
In the case of `Nc1nc(N)c2nc(CNc3ccc(C(=O)NC(CCC(=O)O)C(=O)O)cc3)cnc2n1` (stereo not given), the T/C (dose: 16.0 micrograms/kg/injection, schedule: Q01DX Z (ip), vehicle: alkali diluted with saline) is reported as 140 % of control, the survivor count (dose: 63.0 micrograms/kg/injection, schedule: Q01DX Z (ip), vehicle: alkali diluted with saline) is reported as 4 of 6 and the survivor count (dose: 250.0 micrograms/kg/injection, schedule: Q01DX Z (ip), vehicle: alkali diluted with saline) is reported as 6 of 6. For the same compound, the survivor count (dose: 500.0 micrograms/kg/injection, schedule: Q01DX Z (ip), vehicle: alkali diluted with saline) was 3 of 6.
`C[C@]12CCC(=O)C=C1CC[C@@H]1[C@@H]2CC[C@@]2(C)[C@H]1CC[C@]2(C)O` was tested, and the survivor count (dose: 250.0 mg/kg/injection, schedule: Q01DX Z (sc), vehicle: steroid suspending solution) was 1 of 6 and the survivor count (dose: 500.0 mg/kg/injection, schedule: Q01DX Z (sc), vehicle: steroid suspending solution) was 0 of 6.
In the case of `CC(=O)O[C@]1(C(C)=O)CC[C@H]2[C@@H]3C[C@H](C)C4=CC(=O)C=C[C@]4(C)[C@@]3(F)[C@@H](O)C[C@@]21C`, the T/C (dose: 80.0 mg/kg/injection, schedule: Q01DX Z (sc), vehicle: steroid suspending solution) is reported as 125 % of control.
With `O=C(Nc1ccc(C2=NCCCN2)cc1)c1ccc(C(=O)Nc2ccc(C3=NCCCN3)cc2)cc1` the survivor count (dose: 6.3 mg/kg/injection, schedule: Q01DX Z (ip), vehicle: water) was 4 of 6 and the survivor count (dose: 12.5 mg/kg/injection, schedule: Q01DX Z (ip), vehicle: water) was 1 of 6.
For `CSCS(=O)C[C@H](CO)NC(=O)/C=C/c1c(C)[nH]c(=O)[nH]c1=O` (stereo not given in full), the survivor count [2] was 0 of 6.
With `O=c1[nH]c(=O)n(C2CC(O)C(CO)O2)cc1Br` (stereo not given) the T/C [3] was 130 % of control.
With `C[n+]1c2ccccc2nc2c(N)cc(N)cc21` the survivor count [1] was 0 of 6.
For `c1ccc(CNc2ncnc3[nH]ncc23)cc1`, the survivor count [4] was 0 of 6 and the survivor count (dose: 128.0 mg/kg/injection, schedule: Q01DX Z (ip), vehicle: carboxymethylcellulose (CMC)) was 0 of 6.
With `CN(C)c1ccc(Nc2c3ccccc3nc3ccccc23)cc1` the T/C [1] was 128 % of control and the T/C [5] was 131 % of control.
`Cn1cc(NC(=O)c2cc(NC(=O)CN=C(N)N)cn2C)cc1C(=O)NCCC(=N)N` was tested, and the survivor count [6] was 1 of 6.
`CSc1ncnc2nc[nH]c12` was tested, and the survivor count [7] was 1 of 6.
`C[C@]12C=CC(=O)C=C1CC[C@@H]1[C@@H]2C(=O)C[C@@]2(C)[C@H]1CC[C@]2(O)C(=O)CO` was tested, and the T/C (dose: 50.0 mg/kg/injection, schedule: Q01DX Z (sc), vehicle: steroid suspending solution) was 145 % of control, the T/C (dose: 100.0 mg/kg/injection, schedule: Q01DX Z (sc), vehicle: steroid suspending solution) was 146 % of control and the T/C (dose: 150.0 mg/kg/injection, schedule: Q01DX Z (sc), vehicle: steroid suspending solution) was 131 % of control. The T/C (dose: 200.0 mg/kg/injection, schedule: Q01DX Z (sc), vehicle: steroid suspending solution) was 134 % of control [5 of 6 alive] and the T/C (dose: 300.0 mg/kg/injection, schedule: Q01DX Z (sc), vehicle: steroid suspending solution) was 136 % of control.
`NC(Cc1ccc(N(CCCl)CCCl)cc1)C(=O)O` (stereo not given) was tested, and the T/C [8] was 126 % of control, the T/C [9] was 127 % of control and the survivor count (dose: 40.0 mg/kg/injection, schedule: Q01DX Z (ip), vehicle: carboxymethylcellulose (CMC)) was 4 of 6.
In the case of `C[C@H](N)C(=O)N[C@@H]1[C@H]2C(=C(O)C[C@@H](O)[C@@H]2O)C(=O)O[C@@H]1C`, the T/C (dose: 500.0 mg/kg/injection, schedule: Q01DX Z (ip), vehicle: saline) is reported as 149 % of control and the T/C (dose: 1000.0 mg/kg/injection, schedule: Q01DX Z (ip), vehicle: saline) is reported as 129 % of control.
`S=P(N1CC1)(N1CC1)N1CC1` was tested, and the T/C (dose: 1.25 mg/kg/injection, schedule: Q01DX Z (ip), vehicle: saline) was 142 % of control and the T/C (dose: 2.5 mg/kg/injection, schedule: Q01DX Z (ip), vehicle: saline) was 136 % of control.
In the case of `NC(=O)N(CCCl)N=O`, the survivor count [10] is reported as 6 of 6, the survivor count [11] is reported as 4 of 6 and the survivor count [4] is reported as 1 of 6.
With `CCOC(=O)NP(=O)(N1CC1(C)C)N1CC1(C)C` (stereo not given) the survivor count (dose: 500.0 mg/kg/injection, schedule: Q01DX Z (ip), vehicle: carboxymethylcellulose (CMC)) was 4 of 6 and the survivor count (dose: 1000.0 mg/kg/injection, schedule: Q01DX Z (ip), vehicle: carboxymethylcellulose (CMC)) was 0 of 6.
With `[I][Hg][CH2]C1COC([CH2][Hg][I])CO1` (stereo not given) the survivor count [12] was 0 of 6.
`CCN(CC)c1ccc2cc3ccc(=[N+](CC)CC)cc-3oc2c1` was tested, and the survivor count [9] was 1 of 6.
For `CCCCNc1ncnc2c1cnn2C`, the T/C [10] was 128 % of control, the T/C (dose: 62.5 mg/kg/injection, schedule: Q01DX Z (ip), vehicle: carboxymethylcellulose (CMC)) was 126 % of control and the survivor count (dose: 125.0 mg/kg/injection, schedule: Q01DX Z (ip), vehicle: carboxymethylcellulose (CMC)) was 6 of 6. The survivor count [3] was 0 of 6.
For `CS(=O)(=O)OCCCl`, the survivor count [13] was 6 of 6 and the survivor count [7] was 6 of 6.
With `Cc1cc(N(CCCl)CCCl)ccc1N=Nc1ccccc1C(=O)O` the survivor count (dose: 7.5 mg/kg/injection, schedule: Q01DX Z (ip), vehicle: carboxymethylcellulose (CMC)) was 6 of 6, the survivor count (dose: 60.0 mg/kg/injection, schedule: Q01DX Z (ip), vehicle: carboxymethylcellulose (CMC)) was 5 of 6 and the survivor count [12] was 6 of 6. The survivor count (dose: 240.0 mg/kg/injection, schedule: Q01DX Z (ip), vehicle: carboxymethylcellulose (CMC)) was 3 of 6.
For `N#CCSc1ncnc2nc[nH]c12`, the survivor count [5] was 3 of 6.
`C1CN1c1nc(N2CC2)nc(N2CC2)n1` was tested, and the T/C (dose: 1.0 mg/kg/injection, schedule: Q01DX Z (ip), vehicle: saline) was 133 % of control, the survivor count [2] was 6 of 6 and the survivor count (dose: 4.0 mg/kg/injection, schedule: Q01DX Z (ip), vehicle: saline) was 6 of 6. For the same compound, the survivor count [14] was 6 of 6.
In the case of `CCN(CC)C(=S)S`, the survivor count (dose: 2000.0 mg/kg/injection, schedule: Q01DX Z (ip), vehicle: other) is reported as 1 of 6.
For `CN(N=O)C(N)=O`, the survivor count [6] was 6 of 6.
In the case of `C=CC(CN1CC1)OC(C)=O` (stereo not given), the T/C (dose: 3.8 mg/kg/injection, schedule: Q01DX Z (ip), vehicle: carboxymethylcellulose (CMC)) is reported as 129 % of control, the survivor count (dose: 15.0 mg/kg/injection, schedule: Q01DX Z (ip), vehicle: carboxymethylcellulose (CMC)) is reported as 5 of 6 and the survivor count (dose: 30.0 mg/kg/injection, schedule: Q01DX Z (ip), vehicle: carboxymethylcellulose (CMC)) is reported as 3 of 6.
In the case of `Nc1ncnc2c1ccn2C1OC(CO)C(O)C1O` (stereo not given), the survivor count (dose: 2.5 mg/kg/injection, schedule: Q01DX Z (ip), vehicle: carboxymethylcellulose (CMC)) is reported as 3 of 6 and the survivor count [8] is reported as 3 of 6.
For `Cn1cnc([N+](=O)[O-])c1Sc1nc(N)nc2nc[nH]c12`, the survivor count [10] was 6 of 6, the survivor count [11] was 5 of 6 and the survivor count [4] was 6 of 6.
In the case of `CCCCn1cnc2c(=S)nc[nH]c21`, the T/C [1] is reported as 125 % of control, the T/C [5] is reported as 139 % of control and the survivor count [13] is reported as 5 of 6.
`CCCNc1ncnc2[nH]ncc12` was tested, and the survivor count (dose: 80.0 mg/kg/injection, schedule: Q01DX Z (ip), vehicle: water) was 5 of 6 and the survivor count (dose: 160.0 mg/kg/injection, schedule: Q01DX Z (ip), vehicle: water) was 1 of 6.
`C[C@]12CC[C@H](OC3OC(CO)C(O)C(O)C3O)C[C@H]1CC[C@@H]1[C@@H]2CC[C@]2(C)[C@@H](C3=CCOC3=O)CC[C@]12O` (stereo not given in full) was tested, and the survivor count [14] was 3 of 6.
